Results deposited as PubChem BioAssay AID1259254 (NCATS, 2017)
The deposit covers about 59,000 reagents; below is a random part of them. In the full data, about 1,550 (2.6%) got an active call. 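G2 share is only a proxy for re-replication; each gene was hit by three separate siRNAs, and active genes were retested.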 Unmarked entries are inactive. The numbers tell different reagents against one gene apart. Not all columns of the deposit are shown. Not given: the amount of reagent.

- Assay: 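Finding genes that stop cells copying their DNA twice in one cycle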 (primary screen)
- System: human HCT116 colorectal cancer cells
- Reagents: single siRNA against human genes
- Time to read-out: 3 days
- Read-out: 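Imaged Hoechst DNA stain sorts each cell into a cycle phase by DNA amount; per plate, G2 fraction set to 0% for non-targeting and 100% for GMNN siRNA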
- Direction: G2 robust z-score: higher = more G2 cells, more excess DNA replication
- Hit rule: 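An siRNA counts as active if its G2 robust z-score lies at least 5 MADs above the screen median; here such calls match roughly 38% of GMNN control or more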

For PIEZO2 (GeneID 63895) #1, how do the results read?
G2 robust z-score: -0.141

What did the screen give for PIEZO2 (GeneID 63895) #2?
G2 robust z-score: 0.199

What did the screen give for PIEZO2 (GeneID 63895) #3?
G2 robust z-score: -0.0543

What did the screen give for PIEZO2 (GeneID 63895) #4?
G2 robust z-score: -1.15

For PIEZO2 (GeneID 63895) #5, what does the deposit list?
G2 robust z-score: -0.502

For PIEZO2 (GeneID 63895) #6, what was measured?
G2 robust z-score: 3.02

How did the screen score OR56B1 (GeneID 387748) #1?
G2 robust z-score: -0.977

What did the screen give for OR56B1 (GeneID 387748) #2?
G2 robust z-score: 0.0163

What did the screen give for OR56B1 (GeneID 387748) #3?
G2 robust z-score: -0.88

How did the screen score CLEC18A (GeneID 348174) #1?
G2 robust z-score: 1.23

What is on record for CLEC18A (GeneID 348174) #2?
G2 robust z-score: 0.236

Which result is listed for CLEC18A (GeneID 348174) #3?
G2 robust z-score: 0.49

What did the screen give for LRRTM1 (GeneID 347730) #1?
G2 robust z-score: -0.579

How did the screen score LRRTM1 (GeneID 347730) #2?
G2 robust z-score: 0.293

What did the screen give for LRRTM1 (GeneID 347730) #3?
G2 robust z-score: -0.0338

With THBS1 (GeneID 7057) #1, what does the deposit list?
G2 robust z-score: -0.716

Which result is listed for THBS1 (GeneID 7057) #2?
G2 robust z-score: -0.354

Which result is listed for THBS1 (GeneID 7057) #3?
G2 robust z-score: 7.77 (active)

Which result is listed for ADH6 (GeneID 130) #1?
G2 robust z-score: -0.656

For ADH6 (GeneID 130) #2, how do the results read?
G2 robust z-score: 2.48

With ADH6 (GeneID 130) #3, how do the results read?
G2 robust z-score: 5.55 (active)

How did the screen score TRIM14 (GeneID 9830) #1?
G2 robust z-score: 0.0688

How did the screen score TRIM14 (GeneID 9830) #2?
G2 robust z-score: -0.841

Which result is listed for TRIM14 (GeneID 9830) #3?
G2 robust z-score: 0.435

In a second layout: entries from further up
{"gene": "THBS1 (GeneID 7057)", "reagent no.": 3, "G2 robust z-score": "7.77 (active)"}
{"gene": "ADH6 (GeneID 130)", "reagent no.": 1, "G2 robust z-score": -0.656}
{"gene": "ADH6 (GeneID 130)", "reagent no.": 2, "G2 robust z-score": 2.48}
